Experimental data as given in the supplement of paper PMC12889115.
The other results are listed elsewhere or left out. These are raw signals, not scaled to a control.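 In the initial screen, polymyxin B was used at a concentration that permeabilizes Salmonella's outer membrane but not its inner membrane. Maximum growth was set by DMSO wells with or without polymyxin B. Since plates varied, data were ranked per plate, and compounds giving the lowest OD600 advanced as hits.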

Tested on: Salmonella enterica serovar Typhimurium SL1344
Experiment: bacterial growth OD600 after 18 h with compound and polymyxin B; higher = more bacterial growth (less inhibition)
Conditions: 50 µM, Mueller-Hinton broth

## CC(C)(C)CNc1ccc(C(=O)N2CCCN(c3ncccn3)CC2)cn1
Polymyxin B 1 µg/mL
  bacterial growth OD600: 0.903

## COC(=O)CCC(=O)N(C)CC1CCCN(CCc2cccc(C(F)(F)F)c2)C1 (stereo unspecified)
Polymyxin B 1 µg/mL
  bacterial growth OD600: 0.908

## O=C(c1ccc(C(F)(F)F)cc1)C1CCCN(C(=O)C2=CCCC2)C1 (stereo unspecified)
Polymyxin B 1 µg/mL
  bacterial growth OD600: 0.701

## O=C(CCCn1cncn1)N1CCCC(CCc2ccccc2F)C1 (stereo unspecified)
Polymyxin B 0.75 µg/mL
  bacterial growth OD600: 0.901

## COc1ccc(C(=O)N2CCCC(N3CCN(c4ccccc4OC)CC3)C2)o1 (stereo unspecified)
Polymyxin B 1 µg/mL
  bacterial growth OD600: 0.064

## COC(=O)c1c(S(=O)(=O)NCc2ccccc2Cl)sc2c1CCN(C(=O)/C=C/C(C)C)C2
Polymyxin B 0.75 µg/mL
  bacterial growth OD600: 0.009

## CC(C)(C)NC(=O)c1coc(COc2cccc(F)c2F)n1
Polymyxin B 0.75 µg/mL
  bacterial growth OD600: 0.812

## COCCC(=O)Nc1ccc2c(c1)CN(CC1=CC[C@H]3C[C@@H]1C3(C)C)CC2
Polymyxin B 0.75 µg/mL
  bacterial growth OD600: 0.748

## CCc1ccc(CN2CCCC(C(=O)Nc3ccccc3Oc3cccnc3)C2)o1 (stereo unspecified)
Polymyxin B 1 µg/mL
  bacterial growth OD600: 0.686

## CCOC(=O)C1(CCOC)CCN(Cc2cccc3c2oc2ccccc23)CC1
Polymyxin B 1 µg/mL
  bacterial growth OD600: 0.824

## COc1ccc(CNC(=O)CCC2(Cc3cccc(OC)c3)CCC(=O)N2)cc1 (stereo unspecified)
Polymyxin B 0.75 µg/mL
  bacterial growth OD600: 0.874

## O=C(c1cc(COc2ccc(F)cc2Cl)on1)N1CCCC1
Polymyxin B 0.75 µg/mL
  bacterial growth OD600: 0.586

## CCOC(=O)N1CCC(NC(=O)C2CC23CCN(C(=O)c2cc4cc(C)ccc4[nH]2)CC3)CC1 (stereo unspecified)
Polymyxin B 0.75 µg/mL
  bacterial growth OD600: 0.721

## COc1ccccc1Oc1ncccc1CNC(=O)c1cccnc1C
Polymyxin B 1 µg/mL
  bacterial growth OD600: 0.873

## COCCO[C@H]1[C@H](NC(=O)C(C)C)c2ccccc2C12CCN(C(=O)c1cc(F)cc(F)c1)CC2
Polymyxin B 0.75 µg/mL
  bacterial growth OD600: 0.772

## CCOC(=O)C1(Cc2cccc(F)c2)CCN(Cc2cccc(C)n2)CC1
Polymyxin B 1 µg/mL
  bacterial growth OD600: 0.797

## Cc1noc(C)c1CCCNC(=O)c1ccc(NC(C)C)nc1
Polymyxin B 0.75 µg/mL
  bacterial growth OD600: 0.775

## COc1ccccc1CN(C)C(=O)c1coc(COc2cccc(F)c2F)n1
Polymyxin B 1 µg/mL
  bacterial growth OD600: 0.844

## Cc1cnc(SCCN2CCOCC2)nc1C1CCCN(C(=O)CCC2CCCCC2)C1 (stereo unspecified)
Polymyxin B 0.75 µg/mL
  bacterial growth OD600: 0.002

## C1CCN(C2CCN(c3nc4nonc4nc3N3CCOCC3)CC2)C1
Polymyxin B 0.75 µg/mL
  bacterial growth OD600: 0.725

## COc1ccccc1OCC(=O)NCC1CCCN(C/C=C/c2ccccc2)C1 (stereo unspecified)
Polymyxin B 1 µg/mL
  bacterial growth OD600: 0.951

## O=C(c1n[nH]c(=O)c2ccccc12)N1CCC2(CCCN(Cc3cccc(F)c3F)C2)C1 (stereo unspecified)
Polymyxin B 1 µg/mL
  bacterial growth OD600: 0.754

## CCOc1ccccc1CN1CCOc2ccc(CN3CCC(Oc4cccnc4)CC3)cc2C1
Polymyxin B 0.75 µg/mL
  bacterial growth OD600: 0.728

## O=C(CC(c1ccccc1)c1ccccc1F)N1CCN(C(=O)c2ccco2)CC1 (stereo unspecified)
Polymyxin B 0.75 µg/mL
  bacterial growth OD600: 0.638

## CN(CCc1ccccc1)Cc1cnc(S(C)(=O)=O)n1Cc1ccccc1F
Polymyxin B 1 µg/mL
  bacterial growth OD600: 0.951

## CCCCNC(=O)C1CCCN(C2CCN(C3Cc4ccccc4C3)CC2)C1 (stereo unspecified)
Polymyxin B 1 µg/mL
  bacterial growth OD600: 0.827

## Cc1ncsc1CCCNC(=O)C1CCC(=O)N(CCc2cccc(F)c2)C1 (stereo unspecified)
Polymyxin B 1 µg/mL
  bacterial growth OD600: 0.935

## COC(=O)[C@@H]1CCCN1C(=O)Cc1ccc(N2CCC(NCCc3cnccn3)CC2)cc1
Polymyxin B 0.75 µg/mL
  bacterial growth OD600: 0.743

## O=C1CCC(CCC(=O)N2CCC(c3ccccc3Cl)C2)(Cc2ccccc2)N1 (stereo unspecified)
Polymyxin B 0.75 µg/mL
  bacterial growth OD600: 0.993

## Cc1nccn1CCCNC(=O)C1(N2CCCCC2)Cc2ccccc2C1
Polymyxin B 0.75 µg/mL
  bacterial growth OD600: 0.858

## CCn1nc(C)cc1C(=O)N1CCc2c(cnc(C)c2CNS(=O)(=O)c2cccs2)C1
Polymyxin B 0.75 µg/mL
  bacterial growth OD600: 0.847
